Values from PubChem BioAssay AID743121 (NCATS, 2013).
In all, the deposit lists about 26,000 reagents; shown is a part drawn at random. In the full data, 167 (0.63%) were called active. 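Calls are per gene from RSA p-values that are not deposited; an individual active-marked siRNA can sensitise only weakly.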 Reagents against one gene are numbered here. Reagent sequences are not shown.

- Assay: 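Knock-downs that sensitise breast cancer cells to camptothecin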 (primary screen)
- Cell system: MDA-MB-231 cells, a human breast cancer line
- Reagents: single siRNA against human genes, 20 nM siRNA (0.8 pmol per well)
- Duration: 120 h (drug added 48 h after transfection, read 72 h later)
- Conditions: camptothecin 20 nM (about EC30) for 72 h; vehicle 0.1% DMSO in parallel plates
- Measured: 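Cell viability by ATP luminescence (CellTiter-Glo) as % of non-targeting siRNA wells, and the log2 ratio of viability without drug over viability with camptothecin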
- Scale: log2 vehicle/camptothecin viability: higher = stronger sensitisation to camptothecin; viability with camptothecin and viability without drug: higher = more viable cells
- Rule for the call: 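Each gene scored by redundant siRNA activity (RSA) over its individual siRNA ratios; a gene is called active at p < 0.001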

| Target gene | reagent | log2 vehicle/camptothecin viability | viability with camptothecin (% of control) | viability without drug (% of control) | call |
| --- | --- | --- | --- | --- | --- |
| FBXW5 | 1 | 0.104 | 24.7 | 26.5 | inactive |
| FBXW5 | 2 | -0.122 | 32.1 | 29.5 | inactive |
| FBXW5 | 3 | -0.152 | 54 | 48.6 | inactive |
| FBXW5 | 4 | 0.0751 | 71.6 | 75.5 | inactive |
| PRTFDC1 | 1 | -0.311 | 82.7 | 66.7 | inactive |
| PRTFDC1 | 2 | -0.211 | 87.5 | 75.6 | inactive |
| PRTFDC1 | 3 | 0.131 | 92.7 | 102 | inactive |
| PRTFDC1 | 4 | -0.348 | 30.5 | 23.9 | inactive |
| JMJD6 | 1 | 1.74 | 6.04 | 20.1 | inactive |
| JMJD6 | 2 | -0.431 | 76.4 | 56.6 | inactive |
| JMJD6 | 3 | 0.32 | 53.5 | 66.8 | inactive |
| JMJD6 | 4 | -0.0191 | 103 | 102 | inactive |
| NAMPT | 1 | 0.862 | 42.8 | 77.9 | inactive |
| NAMPT | 2 | -0.126 | 79.4 | 72.8 | inactive |
| NAMPT | 3 | -0.121 | 44.7 | 41.1 | inactive |
| DCXR | 1 | 0.695 | 27.6 | 44.7 | inactive |
| DCXR | 2 | 0.519 | 67.1 | 96.2 | inactive |
| DCXR | 3 | 0.233 | 60.4 | 71 | inactive |
| APEX1 | 1 | -0.175 | 67.8 | 60.1 | inactive |
| APEX1 | 2 | -0.179 | 83.5 | 73.8 | inactive |
| APEX1 | 3 | -0.173 | 41.3 | 36.6 | inactive |
| APEX1 | 4 | -0.137 | 109 | 98.8 | inactive |
| ADAM20 | 1 | -0.177 | 60.1 | 53.2 | inactive |
| ADAM20 | 2 | 0.127 | 36.5 | 39.9 | inactive |
| ADAM20 | 3 | 0.421 | 23.8 | 31.8 | inactive |
| ADAM20 | 4 | -0.254 | 120 | 100 | inactive |
| SOCS6 | 1 | 0.908 | 38.4 | 72.1 | inactive |
| SOCS6 | 2 | -0.323 | 86.7 | 69.3 | inactive |
| SOCS6 | 3 | -0.289 | 108 | 88.8 | inactive |
| SOCS6 | 4 | -0.282 | 97.4 | 80.1 | inactive |
| GPR156 | 1 | -0.595 | 66.8 | 44.2 | inactive |
| GPR156 | 2 | -0.286 | 93.2 | 76.4 | inactive |
| GPR156 | 3 | -0.448 | 89.3 | 65.4 | inactive |
| GPR156 | 4 | -0.241 | 80.5 | 68.1 | inactive |
| CDC25C | 1 | -0.0753 | 90.3 | 85.7 | inactive |
| CDC25C | 2 | -0.293 | 116 | 94.4 | inactive |
| CDC25C | 3 | -0.15 | 71.8 | 64.7 | inactive |
| CDC25C | 4 | 0.0948 | 67.5 | 72.1 | inactive |
| MMUT | 1 | -0.401 | 75.9 | 57.5 | inactive |
| MMUT | 2 | -0.0328 | 97 | 94.8 | inactive |
| MMUT | 3 | 0.663 | 32.1 | 50.8 | inactive |
| MMUT | 4 | 0.262 | 58.4 | 70.1 | inactive |

8 of these entries, set out differently:
{"Target gene": "SOCS6", "reagent": 4, "log2 vehicle/camptothecin viability": -0.282, "viability with camptothecin (% of control)": 97.4, "viability without drug (% of control)": 80.1, "call": "inactive"}
{"Target gene": "GPR156", "reagent": 1, "log2 vehicle/camptothecin viability": -0.595, "viability with camptothecin (% of control)": 66.8, "viability without drug (% of control)": 44.2, "call": "inactive"}
{"Target gene": "GPR156", "reagent": 2, "log2 vehicle/camptothecin viability": -0.286, "viability with camptothecin (% of control)": 93.2, "viability without drug (% of control)": 76.4, "call": "inactive"}
{"Target gene": "GPR156", "reagent": 3, "log2 vehicle/camptothecin viability": -0.448, "viability with camptothecin (% of control)": 89.3, "viability without drug (% of control)": 65.4, "call": "inactive"}
{"Target gene": "GPR156", "reagent": 4, "log2 vehicle/camptothecin viability": -0.241, "viability with camptothecin (% of control)": 80.5, "viability without drug (% of control)": 68.1, "call": "inactive"}
{"Target gene": "CDC25C", "reagent": 1, "log2 vehicle/camptothecin viability": -0.0753, "viability with camptothecin (% of control)": 90.3, "viability without drug (% of control)": 85.7, "call": "inactive"}
{"Target gene": "CDC25C", "reagent": 2, "log2 vehicle/camptothecin viability": -0.293, "viability with camptothecin (% of control)": 116, "viability without drug (% of control)": 94.4, "call": "inactive"}
{"Target gene": "CDC25C", "reagent": 3, "log2 vehicle/camptothecin viability": -0.15, "viability with camptothecin (% of control)": 71.8, "viability without drug (% of control)": 64.7, "call": "inactive"}

The results go on.
| Target gene | reagent | log2 vehicle/camptothecin viability | viability with camptothecin (% of control) | viability without drug (% of control) | call |
| --- | --- | --- | --- | --- | --- |
| SLC24A1 | 1 | -0.0266 | 80 | 78.5 | inactive |
| SLC24A1 | 2 | -0.357 | 80.4 | 62.8 | inactive |
| SLC24A1 | 3 | -0.649 | 72.5 | 46.2 | inactive |
| SLC24A1 | 4 | -0.305 | 89.1 | 72.1 | inactive |
| ZC3HC1 | 1 | 0.332 | 33.2 | 41.8 | active |
| ZC3HC1 | 2 | 1.7 | 4.2 | 13.7 | active |
| ZC3HC1 | 3 | 0.129 | 42.6 | 46.6 | active |
| ZC3HC1 | 4 | 0.651 | 53.1 | 83.4 | active |
| CILK1 | 1 | -0.695 | 85.4 | 52.7 | inactive |
| CILK1 | 2 | -0.138 | 85 | 77.3 | inactive |
| CILK1 | 3 | -0.403 | 104 | 78.3 | inactive |
| CILK1 | 4 | 0.124 | 99.1 | 108 | inactive |
| LGALS1 | 1 | -0.476 | 109 | 78.4 | inactive |
| LGALS1 | 2 | -0.241 | 70.2 | 59.4 | inactive |
| LGALS1 | 3 | 0.262 | 49.6 | 59.4 | inactive |
| LGALS1 | 4 | -0.799 | 61 | 35.1 | inactive |
| KIF21A | 1 | 0.128 | 106 | 116 | inactive |
| KIF21A | 2 | -0.112 | 76.5 | 70.8 | inactive |
| KIF21A | 3 | -0.464 | 81.2 | 58.9 | inactive |
| SERPINH1 | 1 | -0.251 | 96.7 | 81.3 | inactive |
| SERPINH1 | 2 | -0.353 | 70.6 | 55.3 | inactive |
| SERPINH1 | 3 | -0.291 | 66.7 | 54.5 | inactive |
| SERPINH1 | 4 | 1.42 | 6.69 | 17.9 | inactive |
| BCL6 | 1 | 0.126 | 69.2 | 75.6 | inactive |
| BCL6 | 2 | -0.118 | 75.5 | 69.6 | inactive |
| BCL6 | 3 | 0.067 | 97.6 | 102 | inactive |
| BCL6 | 4 | -0.156 | 97.2 | 87.2 | inactive |
